Changes are numbered by the printed parent chain. Results are given in words; binding and its absence hold for the method and conditions named. Some results given as binding are weak or reduced against the parent protein; the word gives no strength.
B1: 1D3/45A2 (antibody, human IgG1, V domains shown)
VH: EVQLLESGGGLVQPGGSLRLSCAASGFTFNTHAMHWVRQAPGKGLEWVSAISGSGGSTYYADSVKGRFTISRDISKNTLYLQMNSLRAEDTAVYYCARLLGRFGEYGMDVWGQGTTVTVSS
VL: DIQMTQSPSSLSASVGDRVTITCRASQNIYTWLAWYQQKPGKAPKLLIYDATNLPTGVPSRFSGSGSGTDFTLTISSLQPEDFATYYCQQSYSTRWTFGGGTKVEIK
B2: 1D3/47B2 (antibody, human IgG1, V domains shown)
VH: B1 VH
VL: B1 VL with N28T, I29V, P55A, R95S
B3: 4H6/4H6 (antibody, human IgG1, V domains shown)
VH: EVQLLESGGGLVQPGGSLRLSCAASGFTFSSYGMHWVRQAPGKGLEWVSGISGSGGSTYYADSVKGRFTISRDNSKNTLYLQMNSLRAEDTAVYYCARTQWRASLDPWGQGTLVNVSS
VL: DIQMTQSPSSLSASVGDRVTITCRASQDISYWLAWYQQKPGKAPKLLIYGASTLQSGVPSRFSGSGSGTDFTLTISSLQPEDFATYYCQQTTMSPYTFGQGTKVEIK
B4: 39A11/62F9 (antibody, human IgG1, V domains shown)
VH: EVQLLESGGGLVQPGGSLRLSCAASGFTFSSYGMHWVRQAPGKGLEWVASISSSSGYIYYADSVKGRFTISRDNSKNTLYLQMNSLRAEDTAVYYCARASSGMDVWGQGTTVTVSS
VL: DIQMTQSPSSLSASVGDRVTITCRASQSVSSAVAWYQQKPGKAPKLLIYAASIRESGVPSRFSGSGSGTDFTLTISSLQPEDFATYYCQQYYSTPLTFGQGTKLEIK
B5: 39A11/56A9 (antibody, human IgG1, V domains shown)
VH: B4 VH
VL: B4 VL with V29I, A32Y, V33L, A34N, S93T
B6: 39A11/57H3 (antibody, human IgG1, V domains shown)
VH: B4 VH
VL: B4 VL with R24Q, S28D, V29I, S30R, S31K, A32Y, V33L, A34N, I53T, T94L
B7: 39A11/56H7 (antibody, human IgG1, V domains shown)
VH: B4 VH
VL: B4 VL with V29I, A32Y, V33L, A34N, I53N, R54L, E55Q, S93T
B8: 1A12/1A12 (antibody, human IgG1, V domains shown)
VH: EVQLLESGGGLVKPGGSLRLSCAASGFTFSSYAMHWVRQAPGKGLEWVAVISYDGSNKYYADSVKGRFTISRDDSKNTLYLQMNSLKTEDTAVYYCARHGWDAFDIWGQGTLVTVSS
VL: DIQMTQSPSSLSASVGDRVTITCRASQDISNRLNWYQQKPGKAPKLLIYLASSLQGGVPSRFSGSGSGTDFTLTISSLQPEDFATYYCQQAISFPLTFGGGTKVEIK
B9: 5G6/5G6 (antibody, human IgG1, V domains shown)
VH: QVQLVQSGAEVKKPGASVKVSCKASGYTFTSYYMHWVRQAPGQGLEWLGWVNPNTGTTRFAQKFQGRVTMTRDTSTSTVYMELSSLRSEDTAVYYCARDANYYYGMDVWGQGTMVTVSS
VL: DIVMTQSPDSLAVSLGERATINCKSSQSVLYSSNNKNYLAWYQQKPGQPPKLLIYWASTRESGVPDRFSGSGSGTDFTLTISSLQAEDVATYYCQKYNSALPITFGQGTRLEIK
B10: 5E4/5E4 (antibody, human IgG1, V domains shown)
VH: QVQLVQSGAEVKKPGASVKVSCKASGYTFTSYDINWVRQAPGQGLEWMGWMNPNSGNTGYAQKFQGRVTMTRDTSTSTVYMELSSLRSEDTAVYYCARGELWFGEFDYYYYYGMDVWGQGTTVTVSS
VL: B8 VL with D28S, N31S, R32Y, L50G, G56S, I92D, S93R, F94I, L96F, G100R
B11: 5F4/5F4 (antibody, human IgG1, V domains shown)
VH: EVQLLESGGGLVKPGGSLRLSCAASGFTFSSYAMHWVRQAPGKGLEWVSAIGGSGRTTYYADSVKGRFTISRDDSKNTLYLQMNSLKTEDTAVYYCARERGYSYGQIDYWGQGTLVTVSS
VL: DIVMTQSPLSLPVTPGEPASISCRSSQSLLHSNGYNYLDWYLQKPGQSPQLLIYAASSLQSGVPDRFSGSGSGTDFTLKISRVEAEDVGVYYCMQGAHWPLTFGQGTKVEIK

Protein sequences, listed by entry. Tags and fused reporters are not part of them. Lines headed by an entry give the natural chain unless they say otherwise; changes in a name come on top.
UniProt Q7Z7D3: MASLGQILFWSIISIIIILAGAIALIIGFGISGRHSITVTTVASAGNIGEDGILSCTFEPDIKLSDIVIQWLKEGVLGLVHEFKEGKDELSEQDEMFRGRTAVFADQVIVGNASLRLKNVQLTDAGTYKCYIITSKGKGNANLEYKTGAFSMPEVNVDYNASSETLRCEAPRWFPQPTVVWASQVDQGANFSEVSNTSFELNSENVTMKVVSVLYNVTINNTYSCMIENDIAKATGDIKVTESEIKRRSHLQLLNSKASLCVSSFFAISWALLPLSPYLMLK
UniProt Q7TSP5: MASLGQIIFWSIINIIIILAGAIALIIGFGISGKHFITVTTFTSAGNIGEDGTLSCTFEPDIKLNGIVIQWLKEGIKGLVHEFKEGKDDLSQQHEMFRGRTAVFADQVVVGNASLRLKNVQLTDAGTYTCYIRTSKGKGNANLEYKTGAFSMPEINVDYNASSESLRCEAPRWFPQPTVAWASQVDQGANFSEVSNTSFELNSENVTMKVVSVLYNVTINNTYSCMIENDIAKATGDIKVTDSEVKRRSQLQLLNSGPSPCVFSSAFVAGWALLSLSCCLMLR

What follows are binders tested against IgV domain of human B7-H4-Fc (human) (assay: ELISA, coated hB7-H4 IgV domain).

binding, binds:
B1
B2
B3
B4
B5
B6
B7
B8

The binders below were run against human B7-H4-his (human) (UniProt Q7Z7D3) (assay: ELISA, coated hB7-H4-his).

binding, binds:
B1
B2
B8

Each binder was assayed against mB7-H4 (soluble mouse B7-H4, construct not named) (mouse) (UniProt Q7TSP5) (assay: summary of ELISA and flow cytometry).

binding, binds:
B9
B10
B11

What follows are binders tested against hB7-H4 (soluble human B7-H4, construct not named) (human) (UniProt Q7Z7D3) (assay: summary of ELISA and flow cytometry).

binding, binds:
B3
B9
B8
B10
B11

What follows are binders tested against human B7-H4-Fc (human) (assay: ELISA, coated hB7-H4-Fc).

binding, binds:
B1
B2
B3
B4
B5
B6
B7
B9
B8
B10
B11

Each binder was assayed against IgV domain of mouse B7-H4-Fc (mouse; human) (assay: ELISA (FIG. 14)).

binding, binds:
B4
B5
B6
B7

These binders were tested against IgV domain of human B7-H4-Fc (human) (assay: ELISA (FIG. 14)).

binding, binds:
B4
B5
B6
B7

These binders were tested against mB7-H4 (soluble mouse B7-H4, construct not named) (mouse) (UniProt Q7TSP5) (assay: ELISA and flow cytometry (FIG. 6)).

binding, binds:
B9
B10
B11

These binders were tested against hB7-H4 (soluble human B7-H4, construct not named) (human) (UniProt Q7Z7D3) (assay: ELISA and flow cytometry (FIG. 6)).

binding, binds:
B9
B10
B11

These binders were tested against IgV domain of mouse B7-H4-Fc (mouse; human) (assay: ELISA, coated mB7-H4 IgV domain).

binding, binds:
B4
B5
B6
B7

These binders were tested against hB7-H4 (soluble human B7-H4, construct not named) (human) (UniProt Q7Z7D3) (assay: ELISA).

binding, binds:
B3
B8

Each binder was assayed against IgV domain of human B7-H4-Fc (human) (assay: ELISA).

binding, binds:
B3
B8

Each binder was assayed against IgV domain of human B7-H4-Fc (human) (assay: ELISA (FIG. 9)).

binding, binds:
B1
B2

From patent publication US20230312724A1
